Values from PubChem BioAssay AID743121 (NCATS, 2013)

- Screen: 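Genes whose silencing strengthens cell killing by camptothecin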 (primary screen)
- System: MDA-MB-231 cells, a human breast cancer line
- Knock-down reagent: single siRNA against human genes, 20 nM siRNA (0.8 pmol per well)
- Time to read-out: 120 h (drug added 48 h after transfection, read 72 h later)
- Treatment: camptothecin 20 nM (about EC30) for 72 h; vehicle 0.1% DMSO in parallel plates
- Measurement: 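CellTiter-Glo ATP signal, scaled to control siRNA as percent viability; sensitisation given as log2 of untreated divided by camptothecin-treated viability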
- Reading the numbers: log2 vehicle/camptothecin viability: higher = stronger sensitisation to camptothecin; viability with camptothecin and viability without drug: higher = more viable cells
- Active means: 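Active genes have an RSA gene-level p-value below 0.001, computed from the ratios of their separate siRNAs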
Shown is a random part of about 26,000 reagents. In the full data, 167 (0.63%) were called active. 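Calls are per gene from RSA p-values that are not deposited; an individual active-marked siRNA can sensitise only weakly.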 A number with no mark means an inactive call. The numbers tell different reagents against one gene apart. No sequences are given here.

| target gene | reagent | log2 vehicle/camptothecin viability | viability with camptothecin (% of control) | viability without drug (% of control) |
| --- | --- | --- | --- | --- |
| KCNIP2 (potassium voltage-gated channel interacting protein 2) | 1 | -0.0169 | 103 | 102 |
| KCNIP2 (potassium voltage-gated channel interacting protein 2) | 2 | 0.137 | 71.4 | 78.6 |
| KCNIP2 (potassium voltage-gated channel interacting protein 2) | 3 | 0.058 | 69 | 71.9 |
| KCNIP2 (potassium voltage-gated channel interacting protein 2) | 4 | -0.298 | 110 | 89.6 |
| HNF1B (HNF1 homeobox B) | 1 | -0.221 | 73.7 | 63.3 |
| HNF1B (HNF1 homeobox B) | 2 | -0.211 | 80 | 69.1 |
| HNF1B (HNF1 homeobox B) | 3 | -0.536 | 38.5 | 26.6 |
| HNF1B (HNF1 homeobox B) | 4 | -0.374 | 65.9 | 50.9 |
| CYP11A1 (cytochrome P450 family 11 subfamily A member 1) | 1 | 0.487 | 44.3 | 62 |
| CYP11A1 (cytochrome P450 family 11 subfamily A member 1) | 2 | -0.214 | 108 | 93.5 |
| CYP11A1 (cytochrome P450 family 11 subfamily A member 1) | 3 | -0.553 | 75.2 | 51.3 |
| CYP11A1 (cytochrome P450 family 11 subfamily A member 1) | 4 | -0.147 | 89.9 | 81.2 |
| ALAS2 (5'-aminolevulinate synthase 2) | 1 | 0.00442 | 96.5 | 96.8 |
| ALAS2 (5'-aminolevulinate synthase 2) | 2 | 0.0746 | 72.3 | 76.1 |
| ALAS2 (5'-aminolevulinate synthase 2) | 3 | 0.129 | 85 | 92.9 |
| IL12RB1 (interleukin 12 receptor subunit beta 1) | 1 | -0.439 | 69.6 | 51.3 |
| IL12RB1 (interleukin 12 receptor subunit beta 1) | 2 | -0.0257 | 98.8 | 97.1 |
| IL12RB1 (interleukin 12 receptor subunit beta 1) | 3 | -0.139 | 75.9 | 69 |
| IL12RB1 (interleukin 12 receptor subunit beta 1) | 4 | -0.268 | 112 | 92.6 |

The list goes on, starting with the last 4 of the part before.
| target gene | reagent | log2 vehicle/camptothecin viability | viability with camptothecin (% of control) | viability without drug (% of control) |
| --- | --- | --- | --- | --- |
| IL12RB1 (interleukin 12 receptor subunit beta 1) | 1 | -0.439 | 69.6 | 51.3 |
| IL12RB1 (interleukin 12 receptor subunit beta 1) | 2 | -0.0257 | 98.8 | 97.1 |
| IL12RB1 (interleukin 12 receptor subunit beta 1) | 3 | -0.139 | 75.9 | 69 |
| IL12RB1 (interleukin 12 receptor subunit beta 1) | 4 | -0.268 | 112 | 92.6 |
| DOK3 (docking protein 3) | 1 | -0.0917 | 29 | 27.2 |
| DOK3 (docking protein 3) | 2 | 0.33 | 34.8 | 43.7 |
| DOK3 (docking protein 3) | 3 | -0.286 | 64.5 | 52.9 |
| DOK3 (docking protein 3) | 4 | 0.436 | 70.3 | 95.1 |
| MSH6 (mutS homolog 6) | 1 | -0.126 | 82.1 | 75.2 |
| MSH6 (mutS homolog 6) | 2 | -0.0288 | 108 | 106 |
| MSH6 (mutS homolog 6) | 3 | 0.426 | 74.3 | 99.8 |
| MSH6 (mutS homolog 6) | 4 | 0.52 | 68.2 | 97.8 |
| PCCA (propionyl-CoA carboxylase subunit alpha) | 1 | 0.701 | 39.9 | 64.9 |
| PCCA (propionyl-CoA carboxylase subunit alpha) | 2 | -0.137 | 119 | 108 |
| PCCA (propionyl-CoA carboxylase subunit alpha) | 3 | -0.416 | 112 | 83.9 |
| PCCA (propionyl-CoA carboxylase subunit alpha) | 4 | -0.212 | 113 | 97.2 |
| ALOX12B (arachidonate 12-lipoxygenase, 12R type) | 1 | -0.249 | 96.8 | 81.5 |
| ALOX12B (arachidonate 12-lipoxygenase, 12R type) | 2 | -0.236 | 75.2 | 63.9 |
| ALOX12B (arachidonate 12-lipoxygenase, 12R type) | 3 | -0.513 | 43.4 | 30.4 |
| ALOX12B (arachidonate 12-lipoxygenase, 12R type) | 4 | -0.0833 | 99.5 | 93.9 |
| PKN1 (protein kinase N1) | 1 | -0.245 | 99 | 83.5 |
| PKN1 (protein kinase N1) | 2 | -0.776 | 21.2 | 12.4 |
| PKN1 (protein kinase N1) | 3 | 0.378 | 19.2 | 24.9 |
| PKN1 (protein kinase N1) | 4 | -0.185 | 64.5 | 56.7 |
| NPC1L1 (NPC1 like intracellular cholesterol transporter 1) | 1 | -0.397 | 63.8 | 48.4 |
| NPC1L1 (NPC1 like intracellular cholesterol transporter 1) | 2 | -0.00492 | 75 | 74.7 |
| NPC1L1 (NPC1 like intracellular cholesterol transporter 1) | 3 | -0.0216 | 20.7 | 20.4 |
| NPC1L1 (NPC1 like intracellular cholesterol transporter 1) | 4 | -0.224 | 57 | 48.8 |
| KCNH2 (potassium voltage-gated channel subfamily H member 2) | 1 | 0.00705 | 81 | 81.4 |
| KCNH2 (potassium voltage-gated channel subfamily H member 2) | 2 | -0.118 | 71.9 | 66.2 |
| KCNH2 (potassium voltage-gated channel subfamily H member 2) | 3 | -0.0207 | 59.1 | 58.3 |
| KCNH2 (potassium voltage-gated channel subfamily H member 2) | 4 | -0.215 | 87.5 | 75.4 |
